From PubChem BioAssay AID1794845 (National Center for Advancing Translational Sciences (NCATS), 2023)
Hit rate of the full screen: of about 6,900 compounds, fewer than 10 were called active. Calls come from the whole dose curve; as a rule, active = well fitted curve in the direction sought with a large enough effect; inconclusive = small, poorly fitted or top-dose-only effect, or another doubt; inactive = no such curve, though single readings can be large or run the other way. The list shows a part of the results.

Sequences of proteins named here, by UniProt entry; tags and fusion partners are left off. A change or cut given only in a name is not applied to a line headed by its entry.
UniProt C7C422: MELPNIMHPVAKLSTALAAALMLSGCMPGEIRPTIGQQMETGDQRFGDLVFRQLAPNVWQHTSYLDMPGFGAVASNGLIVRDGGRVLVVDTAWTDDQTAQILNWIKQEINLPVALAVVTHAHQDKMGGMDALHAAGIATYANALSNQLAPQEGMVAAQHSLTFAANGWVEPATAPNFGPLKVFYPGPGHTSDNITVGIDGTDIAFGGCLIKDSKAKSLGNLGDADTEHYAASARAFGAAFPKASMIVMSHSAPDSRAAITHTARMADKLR

biological target: Metallo-beta-lactamase type 2 (Klebsiella pneumoniae) (UniProt C7C422); test: qHTS to identify inhibitors of the New Delhi Metallo-beta-lactamase (NDM): primary screen against the NCATS Gemini Collection; settings: NDM-1 enzyme, meropenem hydrolysis, absorbance 300 nm; at 38.4 µM (top of the series) unless noted; note: % of control where 0% means no effect
Summary of the method: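 NDM-1 at 2 nM final in 50 mM HEPES pH 7.0, 1 uM ZnSO4, 0.01% Tween20, preincubated >30 min with compound. Meropenem 50 uM final added; absorbance at 300 nm after 30 min.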

| SMILES | activity % (negative = inhibition) |
| --- | --- |
| CC(C)N1C[C@@H](COC(C)(C)C)[C@H](c2ccccc2)[S+]1(=O)[O-] | inactive: 24.4% |
| CN1CCN(S(=O)(=O)c2ccc(F)cc2)CC12CCNC(=O)CC2 (centres undefined) | inactive: -0.368% |
| Cc1nn(-c2ccccc2)c(C)c1Cc1nc(C(C)C)no1 | inactive: 10.3% |
| CCN1Cc2ccccc2N(CC(O)Cc2ccccc2)CCC1=O (centres undefined) | inactive: 8.16% |
| O=C(O)CO[C@@H]1COCC[C@H]1NC(=O)CCCn1cncn1 | inactive: -4% |
| Cn1cc(-c2cnc(Nc3ccc(F)c(Cl)c3)c3c2CCO3)cn1 | inactive: 5.13% [at 57.5 µM] |
| COc1ccc(N2CCN(C(=O)CC3CCCCN(C)C3=O)CC2)cc1 (centres undefined) | inactive: -1.54% |
| O=C(c1ccc(F)cc1)N1CCC2(CNc3ccccc3[S+](=O)([O-])N2)C1 (centres undefined) | inactive: 2.82% |
| Cc1ccc([S+](=O)([O-])NC[C@@H]2CC[C@H]3C[C@@H]2C3(C)C)cc1 | inactive: 1.05% [at 57.5 µM] |
| O=C(Nc1ccccc1)N1CCC2(C1)C(=O)N(CCc1ccccc1)c1ccccc12 (centres undefined) | inactive: -1.39% |
| C[C@@H](N)C(=O)N1CCC(C(=O)Nc2cccc(-c3cccc(Cl)c3)c2)CC1 | inactive: -20.9% |
| c1ccc(CNc2cc(-c3cc(N4CCCCC4)ncn3)c3cc[nH]c3n2)nc1 | inactive: 0.144% |
| CCN(CC)c1ncccc1CNC(=O)Nc1cccc(OC)c1 | inactive: -0.423% |
| CCC(=O)N1CCCC1c1nc(CCOCC2CCCC2)no1 (centres undefined) | inactive: -6.49% |
| O=S(=O)(c1ccccc1)N1CCN(c2ccnc3ccnn23)CC1 | inactive: 36.7% |
| O=C(NC[C@H]1O[C@@H](CO)[C@@H](O)[C@H]1N1CCOCC1)c1cccs1 | inactive: 9.17% [at 57.5 µM] |
| c1ccc(CCc2nc3nccc(-c4cccnc4)n3n2)cc1 | inactive: 12.3% |
| Cn1ncc(CN2CC[C@@H](c3ccc4c(c3)OCO4)[C@H](O)C2)c1C1CC1 | inactive: 0.38% |
| CCn1cc(CN2CCC(N3C(=O)C4(CCCCC4)C3c3ccncc3)CC2)cn1 (centres undefined) | inactive: -3% |
| CCNC(=O)N1CCC(N2C(=O)C3(CCCC3)C2c2ccccc2)CC1 (centres undefined) | inactive: -1.81% |
| COc1cc(C)c(-c2nc(Cn3cccn3)c(C)o2)cc1C | inactive: 11.1% |
| Cc1nn(-c2ccccc2)c2c1C(C(C)C)N(C1CN([S+](=O)([O-])c3cccc(C(F)(F)F)c3)C1)C2=O (centres undefined) | inactive: 24.4% |
| O=C(NCc1ccccc1)c1cnc2n1CCN(Cc1ccccc1)CC2 | inactive: -0.0693% [at 57.5 µM] |
| COc1ccc(-c2cc3nc4c(c(=O)n3[nH]2)CN(C(=O)c2ccc(C)nc2)CC4)cc1 | inactive: -0.491% |

A second format for two compounds above.
SMILES	activity % (negative = inhibition)
COc1cc(C)c(-c2nc(Cn3cccn3)c(C)o2)cc1C	inactive: 11.1%
Cc1nn(-c2ccccc2)c2c1C(C(C)C)N(C1CN([S+](=O)([O-])c3cccc(C(F)(F)F)c3)C1)C2=O (centres undefined)	inactive: 24.4%
